Assay results reported in publication PMC4041447.

How the values were obtained:
[1] = target: T1, GST–FOXK2(1–218) (UniProt Q01167); test: pull-down; purified bacterially expressed GST–FOXK2(1–218) derivatives and total cell extracts from U2OS cells; with or without ethidium bromide (200 μg/ml); detection by immunoblotting; only the target purified
T1 sequence: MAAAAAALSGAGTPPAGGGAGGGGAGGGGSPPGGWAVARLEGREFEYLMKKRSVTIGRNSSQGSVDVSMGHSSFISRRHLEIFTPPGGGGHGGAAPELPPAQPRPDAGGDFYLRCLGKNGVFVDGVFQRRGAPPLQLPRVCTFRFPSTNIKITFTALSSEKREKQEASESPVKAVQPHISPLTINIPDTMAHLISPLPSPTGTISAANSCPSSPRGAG

[2] = target: T2, GST–FOXK2(1–218)(R58A) (UniProt Q01167); test: as above
T2 sequence: T1 sequence with R58A

- binding [1]: binds
- binding [2]: binds
Substance: endogenous HCFC1 (U2OS) (human (endogenous in U2OS))

Substitutions are numbered along the chain they refer to. No constants are given. Whether binding was seen depends on the method and setting. In cells and extracts the contact can be indirect. A result given as binding can be weak or reduced; the word gives no strength. Where a sequence is shown, tags or fusion partners need not be part of it.
